# Source: patent EP0374919A1, “Morphine derivative” (Chugai Seiyaku Kabushiki Kaisha, priority 1988, dated 1990)
# Assays:
# [1] = system: extirpated guinea pig ileum pieces; assay: Transmural electric stimulation test on an extirpated guinea pig ileum piece (smooth muscle contraction); format: cell-based
# Protocol: Example 7 Transmural Electric Stimulation Test on an Extirpated Guinea Pig Ileum Piece:
# The effects of the compounds were examined by applying transmural electric stimulation (0.1 Hz) to extirpated guinea pig ileum pieces while using the smooth muscle contraction as an indication [refer to H.K. Kopsterlitz, A.A. Waterfield; Annu. Rev. Pharmacol., 15, 29 - 47 (1975)].
# The data shown in Table 1 were calculated according to a method reported by Arunlakshana and Schild [refer to 0. Arunlakashana, H.O. Schild; Brit. J. Pharmacol., 14, 48 - 58 (1959)]. Each value is expressed in mean ± standard deviation.
# male mice (Slc: ddy) [2] = assay: Analgesic effect examined by acetic acid-writhing test; conditions: mouse, in vivo
# Protocol: Example 8 Analgesic Effect Examined by Acetic Acid- Writhing Test:
# Male mice (Slc: ddy) aged 5 weeks were divided into groups each having 7 animals. The compounds of the present invention and morphine hydrochloride and pentazocine, which were employed as control compounds, were subcutaneously injected into these animals. After 30 minutes, 0.6% acetic acid was intraperitoneally administered to each mouse in a dose of 0.1 ml/10 g. 10 minutes thereafter, the writhings thus induced were counted within 10 minutes. […] The acetic acid-writhing test was conducted according to a method reported by R. Koster, M. Anderson and E.I. Debeer [refer to Fed. Proc., 18, 412 (1959)].
# male mice (Slc: ddy) [3] = assay: Analgesic examination by radiant heat-stimulation test (tail irradiation, pain threshold); conditions: mouse, in vivo
# Excerpt: Example 6 Analgesic Examination by Radiant Heat-Stimulation Test:
# The compounds of the present invention and morphine hydrochloride were subcutaneously injected into male mice (Slc: ddy) aged 4 weeks. Each group had 7 animals. An hour after the injection, the analgesic effect of each compound was examined by radiant heat-stimulation test [refer to A.G. Hayes, M.J. Sheehan, M.B. Tyers; Brit. J. Pharmacol., 91, 111 - 115 (1987)]. Namely, the tail of each mouse was irradiated with intense light and the time required until the animal switched its tail was measured. The value thus measured was referred to as the pain threshold.
smiles,measurement,setting,value
"CN1CC[C@]23c4c5ccc(O)c4O[C@H]2[C@@H](O)C=C[C@H]3[C@H]1C5.Cl [Morphine hydrochloride, reference compound]",pD₂,[1],7.32 ± 0.13
same,ED₅₀,male mice (Slc: ddy) [2],0.139 mg/kg
same,analgesic activity 3 hours after administration,male mice (Slc: ddy) [3],scarcely any analgesic activity
